These are yes or no findings as the source states them, for the method shown. Binding seen in cells or lysates may run through a third protein. These calls come from enrichment with a bait or labelling near it, and not all partners need be listed.
Target: His-tagged β-clamp (UniProt P0A988)
Experiment: affinity purification with mass spectrometry; His-tag purification on TALON metal affinity resin from extracts of E. coli BL21 overexpressing His-tagged β-clamp (control: His-tag only); 1 h at 4°C, 50 mM NaP pH 8, 300 mM NaCl, washes with 10 mM imidazole; on-resin trypsin digest, LC-MS/MS; three biological replicas

Amino acid sequences for entries named in this document (tags omitted).
UniProt P0A988: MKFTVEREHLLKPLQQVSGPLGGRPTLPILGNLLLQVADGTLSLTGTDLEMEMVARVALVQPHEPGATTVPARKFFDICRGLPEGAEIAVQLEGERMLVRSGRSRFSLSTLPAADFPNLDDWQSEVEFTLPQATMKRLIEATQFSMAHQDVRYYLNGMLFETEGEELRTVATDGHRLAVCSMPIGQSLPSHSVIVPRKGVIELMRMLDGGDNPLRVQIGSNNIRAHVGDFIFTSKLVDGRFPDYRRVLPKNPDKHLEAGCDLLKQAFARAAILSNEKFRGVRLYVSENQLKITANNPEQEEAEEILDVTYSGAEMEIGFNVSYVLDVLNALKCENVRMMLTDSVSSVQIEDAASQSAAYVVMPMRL
UniProt P0A9A6: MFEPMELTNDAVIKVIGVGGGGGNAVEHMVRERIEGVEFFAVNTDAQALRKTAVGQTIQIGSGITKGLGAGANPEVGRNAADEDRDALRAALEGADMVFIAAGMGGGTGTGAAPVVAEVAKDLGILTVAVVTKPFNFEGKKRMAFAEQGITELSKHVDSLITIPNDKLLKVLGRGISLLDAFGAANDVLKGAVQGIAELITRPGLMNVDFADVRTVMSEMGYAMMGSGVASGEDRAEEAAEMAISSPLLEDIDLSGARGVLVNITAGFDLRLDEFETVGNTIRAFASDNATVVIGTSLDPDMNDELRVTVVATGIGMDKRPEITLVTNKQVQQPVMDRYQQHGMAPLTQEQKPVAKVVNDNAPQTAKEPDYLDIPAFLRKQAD

Q: How did the binding turn out when FtsZ (from UniProt P0A9A6 1-383) was run?
A: The binding was “binds”.

Reference: article PMC10564113
